Laboratory results taken from US9234004B2 (Agency for Science, Technology and Research, priority 2010, dated 2016).

What was measured:
[1] = general procedure: Fmoc solid-phase peptide synthesis; details: oxidative folding step, analytical RP-HPLC (C-18, acetonitrile/water gradient 5% to 20%)
[2] = peptide made by a vendor; details: whole synthesis, analytical RP-HPLC (C-18, acetonitrile/water gradient 5% to 20%)

Substance	final HPLC purity [1] [%]	final HPLC purity [2] [%]
PEPTIDE1{L.L.K.K.L.L.K.K.K.C.[am]}|PEPTIDE2{L.L.K.K.L.L.K.K}|PEPTIDE3{L.L.K.K.L.L.K.K.K.C.[am]}|PEPTIDE4{L.L.K.K.L.L.K.K}$PEPTIDE1,PEPTIDE2,9:R3-8:R2|PEPTIDE3,PEPTIDE4,9:R3-8:R2|PEPTIDE1,PEPTIDE3,10:R3-10:R3$$$V2.0	95	–
PEPTIDE1{L.L.K.K.L.L.K.K.K.C.[am]}|PEPTIDE2{L.L.K.K.L.L.K.K}$PEPTIDE1,PEPTIDE2,9:R3-8:R2$$$V2.0	–	>95
PEPTIDE1{L.L.K.K.L.L.K.K.L.L.K.K.L.L.K.K.[am]}$$$$V2.0	–	>95

Strings that start with PEPTIDE1 are HELM notation: dots part the residues, brackets hold end groups and non-standard residues.
